# Test results as given in the supplement of paper PMC8728848.
# The list shows a part of the results.
# Legend:
# Assay in all cases: glycan array binding signal (z-score within array); higher = stronger binding
# Conditions in all cases: glycan notation: IUPAC condensed, linker removed
# Gal(b1-2)Gal = target: Gal(b1-2)Gal
# Summary of the method: (§1)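 From the Consortium for Functional Glycomics database, 3228 arrays were curated, keeping only those whose protein sequence was available. Binding is given as a within-array Z-score averaged across arrays sharing a protein sequence and across linkers. Negative Z-scores can be read as non-binding.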
# Gal(b1-3)Gal = target: Gal(b1-3)Gal
# Summary of the method: as §1
# Gal(b1-3)Gal(b1-4)GlcNAc = target: Gal(b1-3)Gal(b1-4)GlcNAc
# Summary of the method: as §1
# Gal(b1-3)GalNAc = target: Gal(b1-3)GalNAc
# Summary of the method: as §1
# [1] = target: Gal(b1-3)GalNAc(a1-3)[Fuc(a1-2)]Gal(b1-4)Glc
# Summary of the method: as §1
# [2] = target: Gal(b1-3)GalNAc(a1-3)[Fuc(a1-2)]Gal(b1-4)GlcNAc
# Summary of the method: as §1
# Gal(b1-3)GalNAc(b1-3)Gal = target: Gal(b1-3)GalNAc(b1-3)Gal
# Summary of the method: as §1
# [3] = target: Gal(b1-3)GalNAc(b1-3)Gal(a1-4)Gal(b1-4)Glc
# Summary of the method: as §1
# [4] = target: Gal(b1-3)GalNAc(b1-4)Gal(b1-4)Glc
# Summary of the method: as §1
# [5] = target: Gal(b1-3)GalNAc(b1-4)[Neu5Ac(a2-3)]Gal(b1-4)Glc
# Summary of the method: as §1
# Gal(b1-3)GlcNAc = target: Gal(b1-3)GlcNAc
# Summary of the method: as §1
# [6] = target: Gal(b1-3)GlcNAc(a1-3)Gal(b1-4)GlcNAc
# Summary of the method: as §1
# [7] = target: Gal(b1-3)GlcNAc(a1-6)Gal(b1-4)GlcNAc
# Summary of the method: as §1
# Gal(b1-3)GlcNAc(b1-2)Man = target: Gal(b1-3)GlcNAc(b1-2)Man
# Summary of the method: as §1
# [8] = target: Gal(b1-3)GlcNAc(b1-2)Man(a1-3)[Gal(b1-3)GlcNAc(b1-2)Man(a1-6)]Man(b1-4)GlcNAc(b1-4)GlcNAc
# Summary of the method: as §1
# [9] = target: Gal(b1-3)GlcNAc(b1-2)Man(a1-3)[Gal(b1-3)GlcNAc(b1-2)Man(a1-6)]Man(b1-4)GlcNAc(b1-4)[Fuc(a1-6)]GlcNAc
# Summary of the method: as §1
# [10] = target: Gal(b1-3)GlcNAc(b1-2)Man(a1-3)[GlcNAc(b1-4)][Gal(b1-3)GlcNAc(b1-2)Man(a1-6)]Man(b1-4)GlcNAc(b1-4)GlcNAc
# Summary of the method: as §1
# [11] = target: Gal(b1-3)GlcNAc(b1-2)[Gal(b1-3)GlcNAc(b1-6)]Man(a1-6)[Gal(b1-3)GlcNAc(b1-2)Man(a1-3)]Man(b1-4)GlcNAc(b1-4)GlcNAc
# Summary of the method: as §1
# [12] = target: Gal(b1-3)GlcNAc(b1-3)Gal(b1-3)GlcNAc
# Summary of the method: as §1
# [13] = target: Gal(b1-3)GlcNAc(b1-3)Gal(b1-4)Glc
# Summary of the method: as §1
# [14] = target: Gal(b1-3)GlcNAc(b1-3)Gal(b1-4)GlcNAc
# Summary of the method: as §1
# [15] = target: Gal(b1-3)GlcNAc(b1-3)Gal(b1-4)GlcNAc(b1-2)Man(a1-3)[Gal(b1-3)GlcNAc(b1-3)Gal(b1-4)GlcNAc(b1-2)Man(a1-6)]Man(b1-4)GlcNAc(b1-4)GlcNAc
# Summary of the method: as §1
# [16] = target: Gal(b1-3)GlcNAc(b1-3)Gal(b1-4)GlcNAc(b1-2)[Gal(b1-3)GlcNAc(b1-3)Gal(b1-4)GlcNAc(b1-6)]Man(a1-6)[Gal(b1-3)GlcNAc(b1-3)Gal(b1-4)GlcNAc(b1-2)Man(a1-3)]Man(b1-4)GlcNAc(b1-4)[Fuc(a1-6)]GlcNAc
# Summary of the method: as §1
# [17] = target: Gal(b1-3)GlcNAc(b1-3)Gal(b1-4)GlcNAc(b1-3)Gal(b1-4)GlcNAc(b1-2)[Gal(b1-3)GlcNAc(b1-3)Gal(b1-4)GlcNAc(b1-3)Gal(b1-4)GlcNAc(b1-6)]Man(a1-6)[Gal(b1-3)GlcNAc(b1-3)Gal(b1-4)GlcNAc(b1-3)Gal(b1-4)GlcNAc(b1-2)Man(a1-3)]Man(b1-4)GlcNAc(b1-4)[Fuc(a1-6)]GlcNAc
# Summary of the method: as §1
# [18] = target: Gal(b1-3)GlcNAc(b1-3)Gal(b1-4)GlcNAc(b1-6)[Gal(b1-3)GlcNAc(b1-3)]Gal(b1-4)Glc
# Summary of the method: as §1
# [19] = target: Gal(b1-3)GlcNAc(b1-3)Gal(b1-4)[Fuc(a1-3)]GlcNAc
# Summary of the method: as §1
# [20] = target: Gal(b1-3)GlcNAc(b1-3)Gal(b1-4)[Fuc(a1-3)]GlcNAc(b1-6)[Gal(b1-3)GlcNAc(b1-3)]Gal(b1-4)Glc
# Summary of the method: as §1
# [21] = target: Gal(b1-3)GlcNAc(b1-3)GalNAc
# Summary of the method: as §1
# [22] = target: Gal(b1-3)GlcNAc(b1-6)Gal(b1-4)GlcNAc
# Summary of the method: as §1
# [23] = target: Gal(b1-3)GlcNAc(b1-6)GalNAc
# Summary of the method: as §1
# [24] = target: Gal(b1-3)GlcNAc(b1-6)[Gal(b1-3)]GalNAc
# Summary of the method: as §1
# Gal(b1-3)GlcNAc6S = target: Gal(b1-3)GlcNAc6S
# Summary of the method: as §1
# [25] = target: Gal(b1-3)[Fuc(a1-4)]GlcNAc
# Summary of the method: as §1
# [26] = target: Gal(b1-3)[Fuc(a1-4)]GlcNAc(b1-2)Man
# Summary of the method: as §1
# [27] = target: Gal(b1-3)[Fuc(a1-4)]GlcNAc(b1-2)Man(a1-3)[Gal(b1-3)[Fuc(a1-4)]GlcNAc(b1-2)Man(a1-6)]Man(b1-4)GlcNAc(b1-4)[Fuc(a1-6)]GlcNAc
# Summary of the method: as §1
# [28] = target: Gal(b1-3)[Fuc(a1-4)]GlcNAc(b1-3)Gal(b1-3)[Fuc(a1-4)]GlcNAc
# Summary of the method: as §1
# [29] = target: Gal(b1-3)[Fuc(a1-4)]GlcNAc(b1-3)Gal(b1-4)[Fuc(a1-3)]GlcNAc
# Summary of the method: as §1
binder,measurement,setting,value
PX9961W-pdi-543-27-543 (Parabacteroides distasonis) (protein) EGNATTTSYFLNDQQAIDAIDGLYERFHQEGCYGRELFWEQGAACDIVWGRTRGYNSLATLAYTGDESPLRDVFSRMYSTMSRANWIIQELVKKEKGTTLTAVEKRSLGEAYFSRGWAHYLIAYRYGTDKQGVPFVRYEDFPDDYDNSIPPQQATVMDNYKLIIEDMDKAIAYLPIFESYDADNRGRAHQAAAVAFKAKTYAYWATWDATQWNNVIEMVNQLENNYNRDLAPTFAELFSSDLKDYWNAEYLWTIPSIGGALPGGTEFPGIILENKGWGKYNGWGQMKPSYDIYEEMAKDGKGNDRLVRSILEYNQEFPFFGETRKFWSTSDLEAGFMINKYMDAFKYSDPVGEGAVSANGDWPTVRVNFPIIRFAEMLLFRAEAYLMTGQADKATADINRIRLRSNLTPLTGTATMKDLYHERRCELAFEFTDHLFDLKRWNRSSNADIKTLADKELNAHPRIRRYEDRANPESAFTIIGYEDYTNKNAYQAHMMVFPYPSEEITKSNGQLKQNEGY,glycan array binding signal (z-score),Gal(b1-2)Gal,0.17
same,glycan array binding signal (z-score),Gal(b1-3)Gal,-0.761
same,glycan array binding signal (z-score),Gal(b1-3)Gal(b1-4)GlcNAc,-0.037
same,glycan array binding signal (z-score),Gal(b1-3)GalNAc,-0.095
same,glycan array binding signal (z-score),[1],-0.556
same,glycan array binding signal (z-score),[2],0.758
same,glycan array binding signal (z-score),Gal(b1-3)GalNAc(b1-3)Gal,-0.176
same,glycan array binding signal (z-score),[3],-0.883
same,glycan array binding signal (z-score),[4],-0.613
same,glycan array binding signal (z-score),[5],-0.106
same,glycan array binding signal (z-score),Gal(b1-3)GlcNAc,-0.478
same,glycan array binding signal (z-score),[6],-0.65
same,glycan array binding signal (z-score),[7],-0.321
same,glycan array binding signal (z-score),Gal(b1-3)GlcNAc(b1-2)Man,0.063
same,glycan array binding signal (z-score),[8],0.868
same,glycan array binding signal (z-score),[9],0.67
same,glycan array binding signal (z-score),[10],0.771
same,glycan array binding signal (z-score),[11],0.012
same,glycan array binding signal (z-score),[12],-0.617
same,glycan array binding signal (z-score),[13],-0.994
same,glycan array binding signal (z-score),[14],-0.787
same,glycan array binding signal (z-score),[15],0.778
same,glycan array binding signal (z-score),[16],3.68
same,glycan array binding signal (z-score),[17],1.82
same,glycan array binding signal (z-score),[18],2.47
same,glycan array binding signal (z-score),[19],-0.843
same,glycan array binding signal (z-score),[20],-1.28
same,glycan array binding signal (z-score),[21],-1.05
same,glycan array binding signal (z-score),[22],-0.821
same,glycan array binding signal (z-score),[23],-0.697
same,glycan array binding signal (z-score),[24],0.458
same,glycan array binding signal (z-score),Gal(b1-3)GlcNAc6S,-0.793
same,glycan array binding signal (z-score),[25],-0.015
same,glycan array binding signal (z-score),[26],0.017
same,glycan array binding signal (z-score),[27],0.073
same,glycan array binding signal (z-score),[28],-0.102
same,glycan array binding signal (z-score),[29],0.282

# A portion from further up, for reference:
binder,measurement,setting,value
PX9961W-pdi-543-27-543 (Parabacteroides distasonis) (protein) EGNATTTSYFLNDQQAIDAIDGLYERFHQEGCYGRELFWEQGAACDIVWGRTRGYNSLATLAYTGDESPLRDVFSRMYSTMSRANWIIQELVKKEKGTTLTAVEKRSLGEAYFSRGWAHYLIAYRYGTDKQGVPFVRYEDFPDDYDNSIPPQQATVMDNYKLIIEDMDKAIAYLPIFESYDADNRGRAHQAAAVAFKAKTYAYWATWDATQWNNVIEMVNQLENNYNRDLAPTFAELFSSDLKDYWNAEYLWTIPSIGGALPGGTEFPGIILENKGWGKYNGWGQMKPSYDIYEEMAKDGKGNDRLVRSILEYNQEFPFFGETRKFWSTSDLEAGFMINKYMDAFKYSDPVGEGAVSANGDWPTVRVNFPIIRFAEMLLFRAEAYLMTGQADKATADINRIRLRSNLTPLTGTATMKDLYHERRCELAFEFTDHLFDLKRWNRSSNADIKTLADKELNAHPRIRRYEDRANPESAFTIIGYEDYTNKNAYQAHMMVFPYPSEEITKSNGQLKQNEGY,glycan array binding signal (z-score),[15],0.778
same,glycan array binding signal (z-score),[16],3.68
